The values that follow come from article PMC4080449.

Amino acid sequences for entries named in this document (tags omitted).
UniProt Q9HCE7: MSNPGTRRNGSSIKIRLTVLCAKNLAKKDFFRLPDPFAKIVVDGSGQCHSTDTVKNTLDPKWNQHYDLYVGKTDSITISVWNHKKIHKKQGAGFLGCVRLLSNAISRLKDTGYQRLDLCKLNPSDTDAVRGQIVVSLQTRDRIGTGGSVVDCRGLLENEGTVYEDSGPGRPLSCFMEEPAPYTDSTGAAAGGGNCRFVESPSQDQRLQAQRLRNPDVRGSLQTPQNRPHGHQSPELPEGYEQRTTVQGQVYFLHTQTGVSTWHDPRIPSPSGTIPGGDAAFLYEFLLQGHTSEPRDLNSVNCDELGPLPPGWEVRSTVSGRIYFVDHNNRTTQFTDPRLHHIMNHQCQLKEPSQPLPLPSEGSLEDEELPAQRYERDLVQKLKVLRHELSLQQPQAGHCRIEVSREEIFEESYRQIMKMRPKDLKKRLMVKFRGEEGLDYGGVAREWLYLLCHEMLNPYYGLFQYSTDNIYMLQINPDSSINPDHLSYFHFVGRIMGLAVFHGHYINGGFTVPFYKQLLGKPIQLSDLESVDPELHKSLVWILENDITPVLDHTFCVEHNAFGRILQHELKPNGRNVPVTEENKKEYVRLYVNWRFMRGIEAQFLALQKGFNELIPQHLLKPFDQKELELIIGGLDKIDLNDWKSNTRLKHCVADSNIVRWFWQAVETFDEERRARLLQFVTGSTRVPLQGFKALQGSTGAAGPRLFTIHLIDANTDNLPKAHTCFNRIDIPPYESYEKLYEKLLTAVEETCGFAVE
UniProt Q9HAU4: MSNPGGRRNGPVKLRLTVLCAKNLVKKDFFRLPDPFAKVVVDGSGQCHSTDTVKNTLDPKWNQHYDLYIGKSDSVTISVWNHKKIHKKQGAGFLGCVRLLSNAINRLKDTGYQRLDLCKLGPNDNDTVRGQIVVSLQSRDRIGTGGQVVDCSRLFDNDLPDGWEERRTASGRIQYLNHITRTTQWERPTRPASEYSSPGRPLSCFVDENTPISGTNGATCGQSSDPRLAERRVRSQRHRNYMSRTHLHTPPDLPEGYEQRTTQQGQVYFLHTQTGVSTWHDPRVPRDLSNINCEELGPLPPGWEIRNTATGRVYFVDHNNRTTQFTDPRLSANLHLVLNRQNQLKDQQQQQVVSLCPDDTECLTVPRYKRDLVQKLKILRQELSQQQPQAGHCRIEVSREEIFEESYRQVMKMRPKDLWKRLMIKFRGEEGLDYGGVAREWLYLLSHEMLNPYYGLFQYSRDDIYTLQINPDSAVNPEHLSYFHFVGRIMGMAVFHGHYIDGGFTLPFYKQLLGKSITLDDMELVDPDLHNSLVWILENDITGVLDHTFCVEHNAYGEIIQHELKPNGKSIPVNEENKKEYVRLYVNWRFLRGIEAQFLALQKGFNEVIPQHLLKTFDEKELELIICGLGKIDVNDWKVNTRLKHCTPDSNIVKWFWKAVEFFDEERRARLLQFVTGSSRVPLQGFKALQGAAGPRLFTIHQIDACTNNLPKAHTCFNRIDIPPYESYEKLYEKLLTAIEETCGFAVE

No constants are given. Whether binding was seen depends on the method and setting. Binding seen in cells or lysates may run through a third protein. Some binding calls cover weakened binding; strength is not graded here. Where a sequence is shown, tags or fusion partners need not be part of it.

The assay concerns the target T1, Ptch1-CFP (mouse) (UniProt Q61115).
T1 sequence: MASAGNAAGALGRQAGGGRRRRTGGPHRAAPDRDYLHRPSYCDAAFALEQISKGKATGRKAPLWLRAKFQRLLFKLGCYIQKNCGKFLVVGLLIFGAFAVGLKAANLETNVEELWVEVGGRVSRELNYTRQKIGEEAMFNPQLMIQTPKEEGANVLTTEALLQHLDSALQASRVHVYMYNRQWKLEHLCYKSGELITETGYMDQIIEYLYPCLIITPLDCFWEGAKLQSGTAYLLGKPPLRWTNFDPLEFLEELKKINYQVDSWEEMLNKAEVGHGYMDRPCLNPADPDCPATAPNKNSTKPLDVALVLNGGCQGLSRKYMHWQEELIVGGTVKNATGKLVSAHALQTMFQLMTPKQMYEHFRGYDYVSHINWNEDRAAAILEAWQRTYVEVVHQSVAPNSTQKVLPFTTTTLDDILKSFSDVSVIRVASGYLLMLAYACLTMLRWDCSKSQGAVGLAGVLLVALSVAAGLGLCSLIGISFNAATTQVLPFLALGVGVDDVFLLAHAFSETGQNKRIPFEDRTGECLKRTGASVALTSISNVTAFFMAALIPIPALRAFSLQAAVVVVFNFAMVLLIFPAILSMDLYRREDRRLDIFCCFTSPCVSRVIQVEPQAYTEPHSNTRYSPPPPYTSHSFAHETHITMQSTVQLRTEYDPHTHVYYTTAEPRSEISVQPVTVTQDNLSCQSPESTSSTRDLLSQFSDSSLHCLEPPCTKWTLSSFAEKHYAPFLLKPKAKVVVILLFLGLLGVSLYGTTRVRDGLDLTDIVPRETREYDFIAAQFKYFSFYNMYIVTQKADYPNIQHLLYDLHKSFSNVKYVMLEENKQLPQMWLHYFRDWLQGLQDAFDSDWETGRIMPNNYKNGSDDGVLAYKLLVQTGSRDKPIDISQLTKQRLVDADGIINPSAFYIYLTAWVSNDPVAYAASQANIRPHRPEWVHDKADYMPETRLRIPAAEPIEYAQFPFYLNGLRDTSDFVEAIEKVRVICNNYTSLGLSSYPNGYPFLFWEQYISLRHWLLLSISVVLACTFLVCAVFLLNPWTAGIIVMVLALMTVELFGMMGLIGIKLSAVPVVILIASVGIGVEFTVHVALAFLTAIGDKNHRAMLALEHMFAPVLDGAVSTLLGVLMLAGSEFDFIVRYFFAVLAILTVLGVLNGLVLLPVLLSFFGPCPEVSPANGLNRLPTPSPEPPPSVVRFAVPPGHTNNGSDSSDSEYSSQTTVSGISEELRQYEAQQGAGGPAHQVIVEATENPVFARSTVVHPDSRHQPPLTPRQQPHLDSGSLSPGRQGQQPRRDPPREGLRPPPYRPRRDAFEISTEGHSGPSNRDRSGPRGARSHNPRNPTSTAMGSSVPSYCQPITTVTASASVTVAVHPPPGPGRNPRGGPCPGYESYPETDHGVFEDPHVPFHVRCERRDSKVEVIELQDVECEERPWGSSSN
The experiment in a line: FRET or BRET; CFP/YFP sensitized-emission FRET (N-FRET) by confocal microscopy in transfected MEFs; also with ShhN or control conditioned medium for 2 hr. On the technique in general: Bioluminescence resonance energy transfer reports proximity on the nanometre scale.

As to “Smurf1-YFP (from UniProt Q9HCE7 1-757) (enzyme)”, the binding entry is “binds”. On to “Smurf2-YFP (from UniProt Q9HAU4 1-748) (enzyme)”, for which the binding entry is “binds”.
